Assay results: patent US12582638B2, “Pharmaceutical composition for treating cancer, containing mTOR-signaling inhibitor as active ingredient” (KOREA ADVANCED INSTITUTE OF SCIENCE AND TECHNOLOGY, priority 2020, dated 2026)

System: HCT116
Assay: RNA-seq assay, gene set enrichment, pathway enrichment and DEG analysis
Assay type: cell-based, human
Experimental: For the final detection of significant gene-sets, gene annotation databases (KEGG pathway, Gene Ontology, etc.) with various biological information about genes were used to discover various gene-sets by grouping genes with specific functions among all the genes used in the RNA-seq experiment. Significant genes were determined with reference to a difference in expression values between the two classes within each gene-set, and statistically significant gene-set was finally detected based on the significant genes. […] In DEG analysis, expression values of genes are measured and statistically processed to select a significant gene candidate group (differentially expression genes) with a difference in expression between a control and a comparison group.

## O=C(NC1CCN(CCCCC2(C(=O)NCC(F)(F)F)c3ccccc3-c3ccccc32)CC1)c1ccccc1-c1ccc(C(F)(F)F)cc1 [lomitapide, N-(2,2,2-trifluoroethyl)-9-[4-[4-[[[4′-(trifluoromethyl)[1,1′-biphenyl]2-yl]carbonyl]amino]-1-piperidinyl]butyl]-9H-fluoren-9-carboxamide]
AGE-RAGE signaling pathway in diabetic complications
  Gene Ratio: 0.53
Adrenergic signaling in cardiomyocytes
  Gene Ratio: 0.62
Apoptosis
  Gene Ratio: 0.35
Autophagy - animal
  Gene Ratio: 0.6
Breast cancer
  Gene Ratio: 0.37
C-type lectin receptor signaling pathway
  Gene Ratio: 0.16
Colorectal cancer
  Gene Ratio: 0.58
Cytokine-cytokine receptor interaction
  Gene Ratio: 0.37
Endocrine resistance
  Gene Ratio: 0.41
Epithelial cell signaling in Helicobacter pylori infection
  Gene Ratio: 0.38
ErbB signaling pathway
  Gene Ratio: 0.69
Fluid shear stress and atherosclerosis
  Gene Ratio: 0.31
FoxO signaling pathway
  Gene Ratio: 0.52
Hepatitis B
  Gene Ratio: 0.33
Human T-cell leukemia virus 1 infection
  Gene Ratio: 0.35
IL-17 signaling pathway
  Gene Ratio: 0.45
Kaposi sarcoma-associated herpesvirus infection
  Gene Ratio: 0.4
MAPK signaling pathway
  Gene Ratio: 0.31
NF-kappa B signaling pathway
  Gene Ratio: 0.46
Neuroactive ligand-receptor interaction
  Gene Ratio: 0.52
Non-alcoholic fatty liver disease (NAFLD)
  Gene Ratio: 0.33
Osteoclast differentiation
  Gene Ratio: 0.81
PI3K-Akt signaling pathway
  Gene Ratio: 0.24
Parathyroid hormone synthesis, secretion and action
  Gene Ratio: 0.53
Pathways in cancer
  Gene Ratio: 0.3
Peroxisome
  Gene Ratio: 0.83
Pertussis
  Gene Ratio: 0.33
Protein processing in endoplasmic reticulum
  Gene Ratio: 0.26
Relaxin signaling pathway
  Gene Ratio: 0.6
Shigellosis
  Gene Ratio: 0.38
Signaling pathways regulating pluripotency of stem cells
  Gene Ratio: 0.39
Spliceosome
  Gene Ratio: 0.88
TNF signaling pathway
  Gene Ratio: 0.62
Transcriptional misregulation in cancer
  Gene Ratio: 0.4
Viral carcinogenesis
  Gene Ratio: 0.42
